# ± gives the standard deviation of the averaged measurements. The entries are a selection whose mix differs from that of the whole data set. Most values lie at the level of the controls, where differences are scatter.
# Target: VKORC1 (UniProt Q9BQB6)
# Assay: NP40-soluble protein abundance relative to vehicle (solubility fold change) (ratio); higher = more soluble protein in presence of AMP-PNP
# How it was run: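 Jurkat crude lysate (Dounce-homogenised) was treated with eight concentrations from 0.1 to 10 mM for 10 min at room temperature, then 3 min at 37 °C. It was solubilised with 0.8% NP40 and benzonase (60 min, 4 °C) and ultracentrifuged, and the supernatant was TMT-labelled for LC-MS/MS. Intensities were vsn-normalised, and the value is the fold change against the NP40-processed vehicle per replicate, from three independent experiments.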
structure (smiles),measurement,setting,value
Nc1ncnc2c1ncn2[C@@H]1O[C@H](COP(=O)(O)OP(=O)(O)NP(=O)(O)O)[C@@H](O)[C@H]1O [adenylyl imidodiphosphate],NP40-soluble protein abundance,concentration: 0.1mM,0.9692 ± 0.0025
same,NP40-soluble protein abundance,concentration: 0.5mM,0.976 ± 0.05
